Data as given in patent publication US11529319B2, “Methods and compositions for treating neurological conditions” (priority 2017, dated 2022).
“Also recorded” adds a separate entry of the source.

What was measured:
Tsc2+/- mice = assay: Fear conditioning test; format: in vivo, mouse; conditions: two-and-a-half-day treatment
Text: To determine the effects of eNMDAR antagonists on the brain histology of Tsc2^+/− mice, quantitative confocal immunohistochemistry was used to analyze coronal brain slices from 3-month-old wild-type (WT) and Tsc2^+/− mice that had been treated for two and a half days with vehicle, memantine or NitroSynapsin. Tsc2+/− mice on the C57Bl/6J background received via the intraperitoneal route either vehicle or a loading dose of 92 μmol/kg of memantine or NitroSynapsin, followed by 4.6 μmol/kg of drug twice daily for two-and-a-half-days, with the last dose 3 hours prior to the behavioral training session (for a total of five drug injections). This dosing regimen yields an effective concentration of drug at NMDARs in the brain of 1-10 μM.
Fear conditioning tests were performed on three-month-old Tsc2^+/+ and Tsc2^+/− mice to explore the effects of eNMDAR antagonists on anxiety, and learning and memory deficits in Tsc2^+/− mice. Vehicle, memantine or NitroSynapsin were administered for two and a half days, with the last dose of drug occurring 3-hours prior to the first training session. […] Freezing time of three-month-old WT and Tsc2^+/− transgenic mice treated with vehicle, memantine or NitroSynapsin in fear-conditioning trials. […] Values are mean+s.e.m. (n=7-12 mice per group). […]

Mef2c-het mice = assay: Morris water maze (spatial learning and memory); format: in vivo, mouse; conditions: 3-month treatment
Text: Mef2c heterozygous knockout (Mef2c-het) mice were created by crossing mice carrying the conventional exon 2-deleted allele of Mef2c (Mef2c^Δ2) with their WT littermates. All procedures for maintaining and using these mice were approved by the Institutional Animal Care and Use Committee (IACUC) at the Sanford Burnham Prebys Medical Discovery Institute. In this study, only male mice were used for the behavioral assays to insure uniformity (either with or without drug treatment). Chronic treatment with memantine, NitroSynapsin (both at 4.6 μmol/kg body weight) or vehicle (PBS) was administered via i.p. injection, twice a day for at least 3 months, starting at ˜2.5 weeks of age. This age was chosen because mice are still juveniles and thus treatment could begin in human at an equivalent stage.
We tested spatial reference learning and memory using a version of the conventional Morris water maze. The mice were trained to swim to a platform 14 cm in diameter and submerged 1.5 cm beneath the surface of the water. The platform was invisible to the mice while swimming. […] Mice were given 4 trials a day for as many days as necessary to reach the criterion (<20 s mean escape latency). Retention of spatial training was assessed 24 h after the last training trial. Both probe trials consisted of a 60-s free swim in the pool without the platform. […]

`CC12CC3CC(C)(C1)CC(N)(C3)C2` [memantine, reference compound] was tested. Which “conditioned fear responses (freezing in training context and novel context + cue)” value (Tsc2+/- mice) did it give?
Its value is “unaffected by genotype or drugs”.

For `CCC12CC3(N)CC(CC)(C1)CC(O[N+](=O)[O-])(C3)C2` [NitroSynapsin], which “swimming speed during training phase” value (Mef2c-het mice) is on record?
Its value is “neither Mef2c heterozygosity nor NitroSynapsin treatment affected swimming speed; also recorded: not significantly different”.

And the “conditioned fear responses (freezing in training context and novel context + cue)” value (Tsc2+/- mice)?
Its value is “unaffected by genotype or drugs”.
